In US20250270301A1:
These are yes or no findings as the source states them, for the method shown. Some binding calls cover weakened binding; strength is not graded here.

Sequences of proteins named here, by UniProt entry; tags and fusion partners are left off. A change or cut given only in a name is not applied to a line headed by its entry.
UniProt P10636: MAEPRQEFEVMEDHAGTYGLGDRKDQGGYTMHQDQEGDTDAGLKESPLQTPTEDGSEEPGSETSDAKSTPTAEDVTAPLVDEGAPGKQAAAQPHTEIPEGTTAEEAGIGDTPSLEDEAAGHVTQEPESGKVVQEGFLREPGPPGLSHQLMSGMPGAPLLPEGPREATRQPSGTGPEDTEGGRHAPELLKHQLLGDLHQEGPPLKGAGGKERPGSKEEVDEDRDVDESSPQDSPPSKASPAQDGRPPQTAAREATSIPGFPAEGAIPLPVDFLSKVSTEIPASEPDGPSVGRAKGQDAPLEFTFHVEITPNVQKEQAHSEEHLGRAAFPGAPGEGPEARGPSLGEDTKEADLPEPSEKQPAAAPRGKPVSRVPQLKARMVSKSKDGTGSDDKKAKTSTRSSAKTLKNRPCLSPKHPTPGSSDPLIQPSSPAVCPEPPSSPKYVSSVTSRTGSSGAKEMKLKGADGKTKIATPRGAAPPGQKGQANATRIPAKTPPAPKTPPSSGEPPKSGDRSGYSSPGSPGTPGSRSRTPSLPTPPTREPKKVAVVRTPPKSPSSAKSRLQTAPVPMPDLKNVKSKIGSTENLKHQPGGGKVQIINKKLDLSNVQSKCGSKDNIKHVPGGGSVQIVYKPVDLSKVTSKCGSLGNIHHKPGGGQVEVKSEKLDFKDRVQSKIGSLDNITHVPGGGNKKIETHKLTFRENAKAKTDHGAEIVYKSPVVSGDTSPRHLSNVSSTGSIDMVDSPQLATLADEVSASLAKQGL

Legend:
[1] = molecular target: full length recombinant human 2N4R tau (human) (UniProt P10636); assay: ELISA, supernatants at 30 ng/ml
[2] = molecular target: full length recombinant human 2N4R tau (human) (UniProt P10636); assay: ELISA on 2N4R tau, HEK supernatant (legend 1:100; paragraph 307: matched to 30 ng/ml), anti-human IgG-HRP, n=1

| binding [1] | binding [2] | Binder |
| --- | --- | --- |
| binds | binds | #44_VH4VK4_H14/pVL (antibody, V domains shown) VH: QVQLQESGPGLVKPSETLSLTCTVSGIDLSSYAMAWVRQAPGKGLEWIGAIDSAGSTFYASWVKGRSTISKDTSKTTVDLQMTSLTAEDTATYFCARDSGAFDPWGQGTLVTVSS VL: DIQMTQSPSSLSASVGDRVTITCQASQSVYDNYLAWYQQKPGQPPKLLIHAASNLASGVPSRFSGSGSGTEFTLTISSLQPDDFATYYCLGEFSCTTTDCNVFGGGTKVEIK |
| binds | binds | #44_VH4VK4 pVH/L2 (antibody, V domains shown) VH: QVQLQESGPGLVKPSETLSLTCTVSGIDLSSYAMAWVRQAPGKGLEWIGCIDRRGGTFYASWVKGRFTISKDTSKTTVDLQMTSLTAEDTATYFCARDSGAFDPWGQGTLVTVSS VL: DIQMTQSPSSLSASVGDRVTITCQASQSVYDNYLAWYQQKPGQPPKLLIHAASNLASGVPSRFSGSGSGTEFTLTISSLQPDDFATYYCLGEFSCQDTDCNVFGGGTKVEIKR |
